Experimental data taken from the supplement of paper PMC10849652.
The list shows a part of the results.

Amino acid sequences for entries named in this document (tags omitted). A change or cut given only in a name is not applied to a line headed by its entry.
UniProt Q9Y262, whole entry, looked up: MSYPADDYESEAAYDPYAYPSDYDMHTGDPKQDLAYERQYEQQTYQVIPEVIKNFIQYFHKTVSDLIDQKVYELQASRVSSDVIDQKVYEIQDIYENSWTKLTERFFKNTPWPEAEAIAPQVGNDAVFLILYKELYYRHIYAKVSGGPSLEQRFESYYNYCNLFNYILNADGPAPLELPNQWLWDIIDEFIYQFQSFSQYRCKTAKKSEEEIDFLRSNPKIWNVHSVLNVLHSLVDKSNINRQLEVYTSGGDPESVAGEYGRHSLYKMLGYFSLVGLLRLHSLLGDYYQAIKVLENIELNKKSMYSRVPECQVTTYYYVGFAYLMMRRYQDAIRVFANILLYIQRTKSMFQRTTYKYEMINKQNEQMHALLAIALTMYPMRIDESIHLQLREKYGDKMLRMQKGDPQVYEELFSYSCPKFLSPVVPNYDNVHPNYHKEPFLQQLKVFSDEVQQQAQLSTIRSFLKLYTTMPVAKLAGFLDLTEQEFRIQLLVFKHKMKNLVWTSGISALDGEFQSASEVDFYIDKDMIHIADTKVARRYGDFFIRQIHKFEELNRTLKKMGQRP
UniProt Q5UCC4: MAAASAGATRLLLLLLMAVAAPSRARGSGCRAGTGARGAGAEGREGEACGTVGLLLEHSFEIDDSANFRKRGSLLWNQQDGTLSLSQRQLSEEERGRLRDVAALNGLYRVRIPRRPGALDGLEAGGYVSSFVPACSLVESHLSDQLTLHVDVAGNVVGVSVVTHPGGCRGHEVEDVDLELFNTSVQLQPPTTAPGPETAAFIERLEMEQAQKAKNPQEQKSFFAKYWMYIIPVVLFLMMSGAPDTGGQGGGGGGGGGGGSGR
UniProt Q14240, whole entry, looked up: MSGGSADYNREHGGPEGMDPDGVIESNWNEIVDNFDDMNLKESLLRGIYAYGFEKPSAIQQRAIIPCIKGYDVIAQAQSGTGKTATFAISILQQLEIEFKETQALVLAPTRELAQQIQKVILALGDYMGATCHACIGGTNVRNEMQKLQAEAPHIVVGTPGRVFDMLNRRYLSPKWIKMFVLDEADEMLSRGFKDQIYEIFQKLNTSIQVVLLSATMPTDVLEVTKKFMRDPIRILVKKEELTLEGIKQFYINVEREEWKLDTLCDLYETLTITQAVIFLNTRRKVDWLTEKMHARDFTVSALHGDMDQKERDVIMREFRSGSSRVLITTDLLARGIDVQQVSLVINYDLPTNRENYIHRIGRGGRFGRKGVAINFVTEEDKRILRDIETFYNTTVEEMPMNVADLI
UniProt Q9Y6I3: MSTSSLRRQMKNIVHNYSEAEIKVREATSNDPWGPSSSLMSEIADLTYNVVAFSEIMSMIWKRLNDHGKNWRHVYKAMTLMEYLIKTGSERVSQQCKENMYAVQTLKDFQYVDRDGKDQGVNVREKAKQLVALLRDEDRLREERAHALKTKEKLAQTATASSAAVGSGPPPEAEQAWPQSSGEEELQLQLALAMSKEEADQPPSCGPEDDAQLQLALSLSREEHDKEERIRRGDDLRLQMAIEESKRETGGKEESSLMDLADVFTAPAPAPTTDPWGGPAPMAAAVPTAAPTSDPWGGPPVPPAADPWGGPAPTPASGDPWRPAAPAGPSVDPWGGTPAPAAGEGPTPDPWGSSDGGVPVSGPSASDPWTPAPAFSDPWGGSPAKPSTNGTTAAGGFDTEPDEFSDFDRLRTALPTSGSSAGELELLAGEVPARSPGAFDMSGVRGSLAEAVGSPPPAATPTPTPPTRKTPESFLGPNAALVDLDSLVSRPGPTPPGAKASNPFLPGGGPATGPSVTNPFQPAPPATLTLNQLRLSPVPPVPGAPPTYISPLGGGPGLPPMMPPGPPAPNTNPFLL
UniProt Q9Y2J2, whole entry, looked up: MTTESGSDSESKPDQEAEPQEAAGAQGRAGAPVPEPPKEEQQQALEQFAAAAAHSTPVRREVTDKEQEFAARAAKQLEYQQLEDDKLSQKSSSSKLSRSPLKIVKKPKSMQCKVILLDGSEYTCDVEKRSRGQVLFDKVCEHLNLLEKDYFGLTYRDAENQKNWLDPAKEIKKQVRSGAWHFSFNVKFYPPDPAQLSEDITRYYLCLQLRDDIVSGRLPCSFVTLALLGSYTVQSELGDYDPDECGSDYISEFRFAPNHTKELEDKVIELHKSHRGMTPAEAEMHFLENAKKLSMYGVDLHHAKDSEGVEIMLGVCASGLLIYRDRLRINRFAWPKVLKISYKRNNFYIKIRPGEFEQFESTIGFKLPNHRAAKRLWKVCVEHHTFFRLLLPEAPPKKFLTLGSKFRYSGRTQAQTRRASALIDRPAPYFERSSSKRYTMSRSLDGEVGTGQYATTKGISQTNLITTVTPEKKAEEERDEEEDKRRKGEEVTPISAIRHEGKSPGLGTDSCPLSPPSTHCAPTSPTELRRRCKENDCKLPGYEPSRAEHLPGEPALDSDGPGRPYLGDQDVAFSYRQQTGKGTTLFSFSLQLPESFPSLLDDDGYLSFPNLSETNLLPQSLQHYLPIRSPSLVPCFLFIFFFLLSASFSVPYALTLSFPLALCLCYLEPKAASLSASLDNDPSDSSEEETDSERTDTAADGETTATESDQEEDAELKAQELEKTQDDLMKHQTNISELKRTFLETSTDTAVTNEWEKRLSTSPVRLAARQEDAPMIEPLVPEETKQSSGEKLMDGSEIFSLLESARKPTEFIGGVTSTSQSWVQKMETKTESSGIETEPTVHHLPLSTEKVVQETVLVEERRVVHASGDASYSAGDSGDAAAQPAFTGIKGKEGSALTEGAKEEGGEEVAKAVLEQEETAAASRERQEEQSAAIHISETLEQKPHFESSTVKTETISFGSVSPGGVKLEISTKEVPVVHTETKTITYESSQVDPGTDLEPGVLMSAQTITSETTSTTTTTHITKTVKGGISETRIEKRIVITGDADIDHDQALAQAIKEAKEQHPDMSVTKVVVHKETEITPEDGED
UniProt O14638, whole entry, looked up: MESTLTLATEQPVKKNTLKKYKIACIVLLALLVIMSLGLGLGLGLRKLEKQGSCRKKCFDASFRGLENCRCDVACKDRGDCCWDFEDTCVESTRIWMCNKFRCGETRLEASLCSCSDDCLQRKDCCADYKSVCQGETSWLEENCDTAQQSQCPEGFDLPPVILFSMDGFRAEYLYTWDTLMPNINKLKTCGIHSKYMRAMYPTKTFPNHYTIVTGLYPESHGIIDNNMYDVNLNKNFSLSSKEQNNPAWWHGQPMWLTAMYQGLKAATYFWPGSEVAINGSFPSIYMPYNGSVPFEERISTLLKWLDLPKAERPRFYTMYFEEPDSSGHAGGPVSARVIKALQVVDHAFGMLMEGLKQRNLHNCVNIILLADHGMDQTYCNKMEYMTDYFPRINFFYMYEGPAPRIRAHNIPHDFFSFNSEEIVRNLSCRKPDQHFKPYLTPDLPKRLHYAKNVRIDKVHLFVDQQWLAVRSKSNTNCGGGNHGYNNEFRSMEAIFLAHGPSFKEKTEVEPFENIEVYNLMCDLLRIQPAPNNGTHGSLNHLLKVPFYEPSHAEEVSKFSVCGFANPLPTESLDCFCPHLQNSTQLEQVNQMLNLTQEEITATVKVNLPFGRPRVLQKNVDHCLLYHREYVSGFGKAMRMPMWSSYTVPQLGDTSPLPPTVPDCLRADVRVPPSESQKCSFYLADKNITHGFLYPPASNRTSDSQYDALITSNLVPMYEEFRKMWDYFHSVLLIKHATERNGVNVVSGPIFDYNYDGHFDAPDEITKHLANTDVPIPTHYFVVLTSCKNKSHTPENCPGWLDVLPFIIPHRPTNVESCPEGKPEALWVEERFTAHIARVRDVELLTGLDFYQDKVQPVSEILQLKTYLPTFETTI
UniProt O75616: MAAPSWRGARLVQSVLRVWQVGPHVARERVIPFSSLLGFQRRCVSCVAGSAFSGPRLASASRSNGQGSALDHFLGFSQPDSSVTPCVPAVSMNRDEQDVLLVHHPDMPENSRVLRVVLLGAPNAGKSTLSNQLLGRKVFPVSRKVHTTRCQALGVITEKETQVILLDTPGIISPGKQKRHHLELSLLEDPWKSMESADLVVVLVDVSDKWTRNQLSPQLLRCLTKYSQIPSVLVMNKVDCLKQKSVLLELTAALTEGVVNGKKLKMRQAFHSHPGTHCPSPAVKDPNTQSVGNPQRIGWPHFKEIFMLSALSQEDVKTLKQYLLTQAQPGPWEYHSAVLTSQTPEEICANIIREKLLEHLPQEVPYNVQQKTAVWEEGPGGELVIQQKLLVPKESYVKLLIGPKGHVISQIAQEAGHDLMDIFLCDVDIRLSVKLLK
UniProt O75822, whole entry, looked up: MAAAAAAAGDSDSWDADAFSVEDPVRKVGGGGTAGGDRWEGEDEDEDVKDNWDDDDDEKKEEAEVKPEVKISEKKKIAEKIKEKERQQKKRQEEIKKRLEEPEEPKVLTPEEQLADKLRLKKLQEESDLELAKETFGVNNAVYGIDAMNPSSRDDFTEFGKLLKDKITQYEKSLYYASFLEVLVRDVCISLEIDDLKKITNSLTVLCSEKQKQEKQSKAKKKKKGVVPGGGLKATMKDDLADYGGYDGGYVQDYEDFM
UniProt P05198, whole entry, looked up: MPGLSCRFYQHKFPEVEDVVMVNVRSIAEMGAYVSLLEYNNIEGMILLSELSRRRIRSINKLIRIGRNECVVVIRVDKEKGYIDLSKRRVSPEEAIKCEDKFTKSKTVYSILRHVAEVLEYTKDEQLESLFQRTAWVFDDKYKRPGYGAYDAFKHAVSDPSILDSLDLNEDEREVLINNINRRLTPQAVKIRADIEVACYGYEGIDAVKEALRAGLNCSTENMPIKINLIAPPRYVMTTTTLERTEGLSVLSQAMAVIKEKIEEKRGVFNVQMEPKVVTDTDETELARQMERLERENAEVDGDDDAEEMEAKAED
UniProt P13929, whole entry, looked up: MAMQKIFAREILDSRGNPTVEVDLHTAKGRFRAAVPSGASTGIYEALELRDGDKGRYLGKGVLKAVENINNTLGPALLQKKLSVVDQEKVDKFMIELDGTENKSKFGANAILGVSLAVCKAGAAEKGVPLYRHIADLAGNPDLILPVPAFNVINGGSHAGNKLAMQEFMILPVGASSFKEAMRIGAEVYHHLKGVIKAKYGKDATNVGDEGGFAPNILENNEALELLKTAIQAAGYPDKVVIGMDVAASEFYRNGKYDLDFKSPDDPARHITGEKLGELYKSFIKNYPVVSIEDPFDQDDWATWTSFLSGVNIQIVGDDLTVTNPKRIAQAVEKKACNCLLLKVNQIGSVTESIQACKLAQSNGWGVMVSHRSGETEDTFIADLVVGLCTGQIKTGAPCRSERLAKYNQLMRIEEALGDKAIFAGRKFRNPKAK
UniProt Q8IV48: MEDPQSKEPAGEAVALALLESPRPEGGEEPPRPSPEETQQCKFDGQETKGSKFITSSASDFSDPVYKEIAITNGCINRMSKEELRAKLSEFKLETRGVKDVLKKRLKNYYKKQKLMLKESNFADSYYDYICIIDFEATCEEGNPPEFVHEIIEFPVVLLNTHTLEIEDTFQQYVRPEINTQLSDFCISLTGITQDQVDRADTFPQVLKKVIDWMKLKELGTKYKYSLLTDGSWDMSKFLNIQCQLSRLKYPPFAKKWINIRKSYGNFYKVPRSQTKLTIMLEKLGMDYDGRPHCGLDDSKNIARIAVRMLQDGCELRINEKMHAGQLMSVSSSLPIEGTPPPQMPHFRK
UniProt Q5J8M3, whole entry, looked up: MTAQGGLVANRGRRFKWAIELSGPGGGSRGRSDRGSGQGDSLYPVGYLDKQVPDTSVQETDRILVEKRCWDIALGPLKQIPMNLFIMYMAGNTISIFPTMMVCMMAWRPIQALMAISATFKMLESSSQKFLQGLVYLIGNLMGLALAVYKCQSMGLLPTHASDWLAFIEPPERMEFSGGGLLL
UniProt P16422: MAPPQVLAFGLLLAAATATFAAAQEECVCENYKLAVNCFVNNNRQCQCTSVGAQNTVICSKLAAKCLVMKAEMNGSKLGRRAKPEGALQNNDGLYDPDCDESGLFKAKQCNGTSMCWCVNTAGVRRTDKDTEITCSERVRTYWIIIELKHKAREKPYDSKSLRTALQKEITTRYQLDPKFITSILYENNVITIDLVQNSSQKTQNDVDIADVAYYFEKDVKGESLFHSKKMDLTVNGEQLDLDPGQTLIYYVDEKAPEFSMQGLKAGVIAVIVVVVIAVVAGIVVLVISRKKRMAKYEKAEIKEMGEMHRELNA

Columns and labels:
Assay in all cases: log2 fold change, soluble protein after heating vs DMSO (PISA); higher = thermal stabilisation; K562 lysate, 10 uM; active = over 0.2 and 3.5 SD of the protein, either way, in both replicates (recomputed)
erlotinib = compound: C#Cc1cccc(Nc2ncnc3cc(OCCOC)c(OCCOC)cc23)c1 [erlotinib]
Method in brief: (§1)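 Values give the log-two fold change in thermal stability against solvent controls, from duplicates. Crude K562 extract at 1 mg/mL protein, made by dounce homogenisation in PBS pH 7.4 with 1 mM MgCl2, was treated with 10 μM compound for 30 min. After 3 min heating across 48°C-58°C, aliquots were pooled, adjusted to 0.5% NP-40 at 4°C and centrifuged at 21,000xg for 90 min. The supernatant was measured by TMTpro 16plex LC-MS/MS with channel sums equalised.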

[1] = compound: C/C(=N\NC(=O)C1=CC(=CC=C1)S(=O)(=O)N2CCOCC2)/C3=C(C=CC(=C3)Cl)O
Method in brief: as §1

[2] = compound: C1=CC(=CC=C1C2=NC3=C(N2)C=C(C=C3)C(=O)N)OC4=CC=C(C=C4)Cl
Method in brief: as §1

[3] = compound: C1=CC2=C(C=CC(=C2)/C=C\3/C(=O)NC(=NCC4=CC=CS4)S3)N=C1
Method in brief: as §1

[4] = compound: C1=CC2=NC=CN=C2C=C1/C=C/3\C(=O)NC(=O)S3
Method in brief: as §1

[5] = compound: C1=CC=C(C=C1)C2=NC(=C(N2)C3=CC=NC=C3)C4=CC(=C(C=C4)Cl)O
Method in brief: as §1

[6] = compound: C1=CC=C2C(=C1)C3=NNC4=CC=CC(=C43)C2=O
Method in brief: as §1

[7] = compound: C1CCN(C1)C(=O)NC2=CC=CC(=C2)NC3=NC=C(C(=N3)NCCC4=CN=CN4)Br
Method in brief: as §1

[8] = compound: C1CN(CCC1(CC2=CC=C(C=C2)Cl)N)C3=NC=NC4=C3C=CN4
Method in brief: as §1

IRAK-1-4 Inhibitor I = compound: C1COCCN1CCN2C3=CC=CC=C3N=C2NC(=O)C4=CC(=CC=C4)[N+](=O)[O-] [IRAK-1-4 Inhibitor I]
Method in brief: as §1

ibrutinib = compound: C=CC(=O)N1CCC[C@@H](n2nc(-c3ccc(Oc4ccccc4)cc3)c3c(N)ncnc32)C1 [ibrutinib]
Method in brief: as §1

[9] = compound: CC(=O)c1cnc2ccc(-c3cc(Cl)c(O)c(Cl)c3)nc2c1N[C@H]1CC[C@H](CN(C)C)CC1
Method in brief: as §1

ralimetinib = compound: CC(C)(C)Cn1c(N)nc2ccc(-c3[nH]c(C(C)(C)C)nc3-c3ccc(F)cc3)nc21 [ralimetinib]
Method in brief: as §1

[10] = compound: CC(C)(O)CC(=O)NCCn1ccc2ncnc(Nc3ccc(Oc4cccc(C(F)(F)F)c4)c(Cl)c3)c21
Method in brief: as §1

[11] = compound: CC(C)C1=C2N=C(C=C(N2N=C1)NCC3=CC=CC=C3)NCCCCCCN
Method in brief: as §1

[12] = compound: CC1=C(C(CC(=O)N1)C2=CC=C(C=C2)C(F)(F)F)C(=O)NC3=C(C=C4C(=C3)C=NN4)F
Method in brief: as §1

[13] = compound: CC1=C(C2=C(C=C1)C(=O)C3=CC=CC=C3N2CCCN)C
Method in brief: as §1

[14] = compound: CC1=C(C=C(C=C1)NC(=O)C2=CC(=CC=C2)C(C)(C)C#N)NC3=CC4=C(C=C3)N=CN(C4=O)C
Method in brief: as §1

[15] = compound: CC1=C(C=C(C=C1)NC(=O)C2=CC(=CC=C2)N(C)C)NC(=O)C3=CC=C(C=C3)O
Method in brief: as §1

[16] = compound: CC1=CC=C(C=C1)SC2=C3C=C(SC3=CN=C2)C(=O)N
Method in brief: as §1

Measured: log2 fold change

EIF6 (UniProt P56537)
inactive: erlotinib -0.006 | [1] -0.054 | [2] 0.033 | [3] -0.031 | [4] -0.053 | [5] -0.001 | [6] -0.029 | [7] -0.045 | [8] -0.006 | IRAK-1-4 Inhibitor I 0.036 | ibrutinib -0.032 | [9] -0.045 | ralimetinib 0.034 | [10] -0.042 | [11] 0.03 | [12] -0.059 | [13] 0.028 | [14] 0.043 | [15] 0.01 | [16] -0.006

EIF3L (UniProt Q9Y262)
inactive: erlotinib -0.01 | [1] 0.055 | [2] -0.01 | [3] -0.019 | [4] 0.003 | [5] -0.007 | [6] -0.001 | [7] -0.022 | [8] 0.003 | IRAK-1-4 Inhibitor I 0.005 | ibrutinib -0.031 | [9] -0.015 | ralimetinib 0.015 | [10] 0.01 | [11] -0.016 | [12] -0.039 | [13] 0.007 | [14] 0 | [15] 0.009 | [16] -0.006

EMC10 (UniProt Q5UCC4)
inactive: erlotinib 0.036 | [1] -0.05 | [2] 0.015 | [3] 0.051 | [4] -0.034 | [5] -0.005 | [6] -0.072 | [7] 0.022 | [8] 0.002 | IRAK-1-4 Inhibitor I 0.052 | ibrutinib -0.05 | [9] -0.022 | ralimetinib -0.032 | [10] -0.027 | [11] -0.061 | [12] 0 | [13] 0.022 | [14] 0.076 | [15] -0.037 | [16] -0.025

EIF4A2 isoform 2 (UniProt Q14240)
inactive: erlotinib -0.007 | [1] 0.027 | [2] -0.037 | [3] -0.006 | [4] 0.02 | [5] -0.008 | [6] 0.004 | [7] 0.006 | [8] -0.007 | IRAK-1-4 Inhibitor I -0.018 | ibrutinib 0.019 | [9] 0.02 | ralimetinib 0.015 | [10] 0.016 | [11] -0.033 | [12] -0.007 | [13] 0.016 | [14] -0.017 | [15] -0.025 | [16] 0.02

EPN1 (UniProt Q9Y6I3)
inactive: erlotinib -0.001 | [1] 0.014 | [2] 0.022 | [3] -0.005 | [4] 0.001 | [5] 0.024 | [6] 0.004 | [7] 0 | [8] 0.018 | IRAK-1-4 Inhibitor I 0.005 | ibrutinib 0.026 | [9] 0.037 | ralimetinib -0.014 | [10] 0.012 | [11] -0.018 | [12] -0.029 | [13] -0.012 | [14] -0.021 | [15] 0 | [16] -0.011

EPB41L3 (UniProt Q9Y2J2)
inactive: erlotinib -0.038 | [1] 0 | [2] -0.036 | [3] 0.045 | [4] 0 | [5] 0.019 | [6] 0.021 | [7] 0.054 | [8] -0.017 | IRAK-1-4 Inhibitor I -0.071 | ibrutinib -0.025 | [9] 0.021 | ralimetinib 0.007 | [10] 0.124 | [11] -0.009 | [12] 0.055 | [13] 0.054 | [14] -0.058 | [15] -0.003 | [16] 0.035

ENO1, A0A2R8YEM5
inactive: erlotinib -0.019 | [1] 0.004 | [2] 0.011 | [3] -0.017 | [4] 0.031 | [5] 0.016 | [6] 0.009 | [7] 0 | [8] 0.032 | IRAK-1-4 Inhibitor I -0.031 | ibrutinib -0.013 | [9] 0.008 | ralimetinib -0.012 | [10] -0.016 | [11] -0.024 | [12] -0.032 | [13] 0.001 | [14] 0.012 | [15] -0.044 | [16] 0.014

ENPP3 (UniProt O14638)
inactive: erlotinib -0.046 | [1] -0.045 | [2] 0.027 | [3] -0.008 | [4] -0.005 | [5] 0.012 | [6] 0.006 | [7] 0.002 | [8] 0.023 | IRAK-1-4 Inhibitor I -0.013 | ibrutinib -0.003 | [9] -0.004 | ralimetinib 0.035 | [10] -0.02 | [11] 0.035 | [12] 0.076 | [13] -0.047 | [14] 0.003 | [15] 0.017 | [16] -0.024

ERAL1 (UniProt O75616)
inactive: erlotinib -0.016 | [1] -0.003 | [2] 0.05 | [3] -0.014 | [4] 0.03 | [5] 0.015 | [6] -0.027 | [7] -0.041 | [8] -0.047 | IRAK-1-4 Inhibitor I -0.042 | ibrutinib 0.052 | [9] -0.042 | ralimetinib 0.03 | [10] 0.011 | [11] -0.007 | [12] 0.047 | [13] 0.03 | [14] 0.014 | [15] 0.045 | [16] 0.018

EIF3J (UniProt O75822)
inactive: erlotinib 0.003 | [1] -0.001 | [2] 0.034 | [3] -0.014 | [4] -0.01 | [5] 0.018 | [6] 0.005 | [7] -0.014 | [8] 0.003 | IRAK-1-4 Inhibitor I 0.008 | ibrutinib -0.04 | [9] -0.012 | ralimetinib -0.032 | [10] -0.006 | [11] -0.012 | [12] -0.026 | [13] 0.004 | [14] 0.009 | [15] 0.022 | [16] -0.003

EIF2S1 (UniProt P05198)
inactive: erlotinib -0.013 | [1] 0.031 | [2] -0.01 | [3] -0.02 | [4] -0.025 | [5] 0.019 | [6] -0.002 | [7] -0.017 | [8] 0.019 | IRAK-1-4 Inhibitor I -0.001 | ibrutinib -0.029 | [9] -0.006 | ralimetinib -0.012 | [10] -0.021 | [11] -0.004 | [12] -0.028 | [13] 0.004 | [14] 0.017 | [15] -0.004 | [16] 0.01

Random excerpt: 2 records from the list
EIF3L (UniProt Q9Y262)
inactive: erlotinib -0.01 | [1] 0.055 | [2] -0.01 | [3] -0.019 | [4] 0.003 | [5] -0.007 | [6] -0.001 | [7] -0.022 | [8] 0.003 | IRAK-1-4 Inhibitor I 0.005 | ibrutinib -0.031 | [9] -0.015 | ralimetinib 0.015 | [10] 0.01 | [11] -0.016 | [12] -0.039 | [13] 0.007 | [14] 0 | [15] 0.009 | [16] -0.006

EPB41L3 (UniProt Q9Y2J2)
inactive: erlotinib -0.038 | [1] 0 | [2] -0.036 | [3] 0.045 | [4] 0 | [5] 0.019 | [6] 0.021 | [7] 0.054 | [8] -0.017 | IRAK-1-4 Inhibitor I -0.071 | ibrutinib -0.025 | [9] 0.021 | ralimetinib 0.007 | [10] 0.124 | [11] -0.009 | [12] 0.055 | [13] 0.054 | [14] -0.058 | [15] -0.003 | [16] 0.035

Continued.

ENO3 (UniProt P13929)
inactive: erlotinib -0.001 | [1] 0.11 | [2] 0.047 | [3] -0.07 | [4] 0.032 | [5] 0.054 | [6] -0.016 | [7] 0.071 | [8] 0.065 | IRAK-1-4 Inhibitor I 0.099 | ibrutinib 0.092 | [9] 0.001 | ralimetinib 0.111 | [10] 0.071 | [11] -0.004 | [12] -0.026 | [13] -0.193 | [14] 0.083 | [15] -0.04 | [16] -0.016

EPRS (UniProt P07814)
inactive: erlotinib 0.028 | [1] 0.032 | [2] -0.007 | [3] 0.01 | [4] 0.014 | [5] 0.017 | [6] -0.026 | [7] 0 | [8] -0.004 | IRAK-1-4 Inhibitor I -0.006 | ibrutinib -0.018 | [9] 0.002 | ralimetinib 0.01 | [10] 0.026 | [11] 0.02 | [12] -0.014 | [13] 0.02 | [14] -0.004 | [15] 0.046 | [16] 0.019

ERI1 (UniProt Q8IV48)
inactive: erlotinib -0.015 | [1] 0.073 | [2] -0.009 | [3] 0.019 | [4] -0.028 | [5] 0.134 | [6] -0.03 | [7] -0.009 | [8] -0.036 | IRAK-1-4 Inhibitor I -0.111 | ibrutinib -0.037 | [9] 0.022 | ralimetinib -0.035 | [10] 0.085 | [11] 0.084 | [12] -0.05 | [13] 0 | [14] -0.033 | [15] 0.411 | [16] 0.012

EMC4 (UniProt Q5J8M3)
inactive: erlotinib 0.013 | [1] -0.031 | [2] 0.058 | [3] 0.031 | [4] -0.053 | [5] -0.076 | [6] -0.048 | [7] -0.03 | [8] 0 | IRAK-1-4 Inhibitor I -0.051 | ibrutinib 0.034 | [9] -0.036 | ralimetinib -0.015 | [10] 0.007 | [11] -0.029 | [12] 0.019 | [13] -0.005 | [14] 0 | [15] 0.052 | [16] 0.021

EPCAM (UniProt P16422)
inactive: erlotinib 0.042 | [1] 0.018 | [2] 0.007 | [3] -0.04 | [4] 0 | [5] -0.029 | [6] 0.047 | [7] 0.002 | [8] -0.032 | IRAK-1-4 Inhibitor I 0.019 | ibrutinib -0.006 | [9] 0.031 | ralimetinib -0.007 | [10] -0.052 | [11] -0.115 | [12] -0.013 | [13] -0.104 | [14] 0.027 | [15] -0.102 | [16] -0.041
